The supplement of paper PMC3334620
The full ranking holds about 33,000 sequences; the median of “E-score (-0.5 to 0.5)” is about -0.015, and the highest 2% start at about 0.3. Some of the results follow.

These sequences were tested against T1, Abf1 (UniProt P14164) (assay: PBM E-score (8-mer binding enrichment) (E-score (-0.5 to 0.5)); higher = stronger / more preferred TF binding). Details: protein concentration: 200 nM; construct: GST-full length.
T1 sequence: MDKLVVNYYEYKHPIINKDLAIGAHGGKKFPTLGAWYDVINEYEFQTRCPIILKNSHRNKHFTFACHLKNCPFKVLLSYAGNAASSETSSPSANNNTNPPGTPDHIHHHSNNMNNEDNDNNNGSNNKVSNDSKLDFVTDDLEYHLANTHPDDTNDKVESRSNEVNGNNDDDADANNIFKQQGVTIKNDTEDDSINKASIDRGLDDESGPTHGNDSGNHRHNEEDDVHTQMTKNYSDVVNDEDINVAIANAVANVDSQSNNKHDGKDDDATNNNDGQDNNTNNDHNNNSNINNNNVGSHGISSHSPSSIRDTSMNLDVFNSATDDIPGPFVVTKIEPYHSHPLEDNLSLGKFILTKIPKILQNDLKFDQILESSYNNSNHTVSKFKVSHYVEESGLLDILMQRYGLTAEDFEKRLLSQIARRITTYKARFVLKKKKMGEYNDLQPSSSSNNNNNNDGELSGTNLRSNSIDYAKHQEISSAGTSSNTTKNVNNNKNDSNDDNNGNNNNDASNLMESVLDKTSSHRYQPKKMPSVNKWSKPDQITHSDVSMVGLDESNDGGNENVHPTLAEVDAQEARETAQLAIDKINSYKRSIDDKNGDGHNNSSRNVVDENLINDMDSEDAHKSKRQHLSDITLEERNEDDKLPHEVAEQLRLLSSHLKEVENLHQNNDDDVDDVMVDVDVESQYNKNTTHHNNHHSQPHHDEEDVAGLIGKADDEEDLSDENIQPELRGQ
Procedure, shortened: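 Universal all-10-mer Agilent arrays, fresh or stripped once, were converted to double-stranded form by primer extension. GST-tagged yeast transcription factors from PURExpress in vitro transcription/translation, full-length or DNA-binding domain only, were applied at about 100-200 nM and detected with fluorescent anti-GST. After masliner normalisation, the Universal PBM Analysis Suite scored each ungapped eight-base word together with its reverse complement by E-score.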

Sequence | PBM E-score
AGACACAA | -0.00046
ATGCTTTG | -0.0227
GTGAATAA | 0.176
ACCTTTCT | 0.0863
CTTGTGCC | -0.245
ATAAATGC | 0.11
CCTCTACC | -0.146
ATAATTAT | 0.303
ATCAACCG | -0.121
CCCCAGGC | -0.329
ATTGTATC | 0.0583
ACAGAGGG | -0.00778
ACACTGCC | 0.0273
ATTGGGAC | -0.068
CTCACGGA | 0.103
AGATATAG | 0.0509
AGGTCTAG | -0.075
CATAGCAG | -0.126
GGTCGACA | -0.106
ACGCGAGT | 0.097
TGTCTGAA | -0.0515
ACGAGCTC | 0.197
GATACCAC | 0.0488
CACAAGAA | 0.0501
GGGATACC | -0.0496

Sequence | PBM E-score
ATAGTGTA | 0.0594
AGGATGGG | -0.128
AAGCTTCT | -0.0925
AGTTTTCA | 0.00364
AAGCAAAC | 0.00899
AACATTGC | -0.141
CCTCCCCA | -0.203
AGTAACCG | 0.0501
CGTTGGAA | 0.206
CAATGAAA | 0.0231
AACTCAGC | -0.0983
CGTAGGGA | 0.148
ACGGACAG | 0.0439
ACCATTCC | -0.039
AACGTACC | 0.185
AAAGAACG | 0.00276
CTTTGTAA | 0.194
AGCAAGGG | -0.0657
GAGCCGGA | -0.147
TGTCCTAA | 0.166
AAATACCA | -8e-05
GAAGCTAC | -0.119
AAAGCAAT | 0.123
AACACAAC | -0.029
GGGGCGAA | -0.295

Quoted at random: 4 records from the list
Sequence | PBM E-score
ACAGAGGG | -0.00778
AGATATAG | 0.0509
AAATACCA | -8e-05
AGGTCTAG | -0.075

(listing goes on)

Sequence | PBM E-score
GGCTTACA | -0.00181
AAGGGACA | -0.132
TACGTATA | 0.263
GGATGGCA | -0.0267
AGAGTATC | -0.0064
ATTGTGTG | -0.137
ACCTCCGA | -0.136
ACTGTGCG | 0.0999
ACAACTCT | -0.14
ACAACTGA | -0.101
GCCCTCCA | -0.28
CCATTACG | -0.0138
ATCTACCC | -0.136
AGGTTTTG | -0.104
CCCACACG | -0.0558
CACCCCCG | -0.192
ACCGGTGA | 0.217
ATCTAAGC | -0.15
AGATCAAC | -0.0362
AGGTACCA | -0.18
CATACTAG | 0.108
ATGTTGCG | 0.106
GCCGAGTA | -0.15
CCTGTATC | 0.0189
ATCCAACA | 0.157

Sequence | PBM E-score
AAGGGAAA | 0.0168
CCGAAGCG | -0.0317
ATGGTGTG | 0.0461
GCTTTCAC | 0.0159
ACTTCCAC | -0.104
AACGGGGG | -0.0846
ACGAGGCC | 0.06
GGGCCGGA | -0.147
ACCAGACG | -0.103
ATACCAGA | 0.00095
GGTGCAAA | -0.0827
CAGTAGCA | -0.119
ACCCTCCT | -0.214
GATTGAGC | 0.0747
AATCAGGC | 0.156
GTTAAAGA | 0.167
AGCCCGTG | -0.0882
CACGATGA | 0.197
AGTATGGA | 0.0747
ACGTACGA | 0.335
CAGCCGTA | 0.192
ATGGCGAG | 0.0386
ACGTGTCC | -0.0119
AGTAAGAA | 0.147
AAGAGAAA | -0.0161

Sequence | PBM E-score
GCTCAACC | -0.077
GAAATTGA | 0.0589
AGTTATCC | 0.0644
TGCGGGAA | -0.23
CTAGCTGA | 0.0355
AAGACCTG | -0.0181
AAAGCGAG | -0.0929
AAAGCACG | 0.237
CGAAAGGA | 0.191
CACCCCCA | -0.176
GCATTCTA | 0.0723
AACCGCTG | -0.129
AATACCAG | 0.101
GCGTGGGA | -0.0248
CCAAACAC | -0.088
AAATTGCA | 0.0635
CGGAACGA | 0.262
GTCTAACA | -0.167
AGTTGTCC | -0.0747
GTCTACGA | 0.206
ATTGAGTC | -0.0498
TGCAGAAA | 0.0862
GCGCGATA | 0.278
AGGACAAA | 0.121
CACGTTCA | -0.0257

Sequence | PBM E-score
CCCGGTTC | -0.162
CATCTATC | 0.0811
TCGGGACA | -0.0811
AGTAGGTG | -0.0684
AAACCGCA | -0.114
GACCCTGA | -0.142
AAACCCGT | -0.131
CCGGCTTA | -0.0995
ACGCTTCA | -0.207
ATCTTCAC | 0.14
GATTCAGA | 0.0222
CCCTACAG | -0.223
ACAGCGGC | -0.212
CGATCTGA | 0.109
ACATATGT | -0.191
AGCTCCCC | -0.27
CTCTCCAG | -0.221
GACCGCTC | -0.226
ACGGTGTC | 0.0607
GAGAATTA | -0.0118
GTATGTTA | 0.267
AAGATATT | 0.169
CGACTCGC | 0.0357
GATTAGTA | 0.106
AGAATCCA | -0.0362

Sequence | PBM E-score
ACCTCCGG | -0.0229
GGGGAATA | -0.112
TAAAACAA | 0.0486
GATTAATA | 0.0723
ACCAGACC | 0.0665
CCAACGAC | 0.0733
ATAACGAC | 0.117
GTCTCAGA | -0.0269
CGATAAAC | 0.186
CAAACGTA | 0.0782
ACTGACCT | -0.173
GGAAAACA | -0.0502
GATTGGGC | 0.0019
CTCTATCA | 0.0533
GTACCGTA | 0.214
CGCTATAC | -0.0933
GCGTCAGC | -0.179
GCTTGCCC | -0.332
CAGTACGG | -0.00133
ATGTTTTG | 0.115
AGGCTACC | -0.058
AGTGGTCC | -0.135

Two consecutive entries already listed:
Sequence | PBM E-score
AGGCTACC | -0.058
AGTGGTCC | -0.135

Some of the entries so far, with tabs.
Sequence	PBM E-score
CCCCAGGC	-0.329
ATTGTATC	0.0583
ACAGAGGG	-0.00778
ACACTGCC	0.0273
